The values below come from publication PMC10349855, “Structural basis for specific RNA recognition by the alternative splicing factor RBM5”.

For part of these data: Weaker means in comparison with the reference protein, sequence or condition of that experiment. Protein sequences can lack the tags named with them. For part of these data: For at least one entry, the source does not settle the construct or the ends of the probe. For part of these data: At least one verdict was read from the data and is not stated in words by the source.

The target of one series is T1, RBM5 RRM1 (human) (UniProt P52756).
T1 sequence (looked up): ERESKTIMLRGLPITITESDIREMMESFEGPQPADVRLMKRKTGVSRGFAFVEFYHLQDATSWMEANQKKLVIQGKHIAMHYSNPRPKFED
Put plainly: NMR. The settings on record: protein:RNA 1:1; NMR: 20 mM MES pH 6.5, 100 mM (single RRMs) or 400 mM (multidomain) NaCl, 1 mM DTT, 298 K; recombinant protein; residues 94-184; protein details: His-Trx tag, TEV site (cleaved).

For series [1], the target named is T2, RBM5 RRM1-ZnF1S I107T,C191G (Homo sapiens) (UniProt P52756).
T2 sequence (looked up): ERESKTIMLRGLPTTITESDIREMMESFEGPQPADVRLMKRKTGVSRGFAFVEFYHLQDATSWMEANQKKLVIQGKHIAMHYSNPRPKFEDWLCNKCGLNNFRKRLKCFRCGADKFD
Put plainly: structure. As to conditions: Zn; purified recombinant protein; residues 94-210; variant of GGCU_12.

The target in series [2] is T3, RBM5 L1-RRM2 (Homo sapiens) (UniProt P52756).
T3 sequence (looked up, limits assumed): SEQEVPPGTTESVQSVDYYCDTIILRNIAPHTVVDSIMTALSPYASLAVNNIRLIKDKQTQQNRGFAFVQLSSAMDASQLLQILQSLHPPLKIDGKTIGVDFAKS
Put plainly: NMR. As to conditions: 20 mM MES pH 6.5, 100 mM NaCl, 1 mM DTT, 25 C; protein 0.1-0.2 mM; purified recombinant protein.

UCUCUUCUC [CU_9]: in the series with RBM5 RRM1 (human), the binding result is reported as “binds”.

Turning to UGGCUCUUCU [GGCU_10], the binding result in series [1] is recorded as “binds”. On to UGGCUCUUCUCU [GGCU_12], for which, in series [2], the binding result is reported as “binds more weakly”.
